At least one compound was matched to its structure with a doubt left.
Test system: gastruloid cardiac portion
Test: Calcium imaging of the gastruloid cardiac portion
Format: cell-based, mouse
Settings: 168 h gastruloids, 10 μM, light sheet imaging with Cal-520
Method: To image calcium fluxes, gastruloids were incubated for 1 h with 8 μM Cal-520 (AAT Bioquest) at 37° C., 5% CO2. Gastruloids were then transferred to fresh medium before imaging. Imaging was performed with a Light sheet Z1 microscope (Zeiss) equipped with an environmental chamber to maintain gastruloids at 37° C. and 5% CO2. For imaging, gastruloids were embedded in 1% low melt agarose and the chamber was filled with culture medium. Nifidepine (Sigma Aldrich, 10 μM) and Isoproterenol (Isoprenaline hydrochloride, Sigma 15627, 1 μM) were added with a syringe directly to the imaging chamber during acquisition. The analysis of calcium spikes was performed with the Fiji Stacks-plot Z-Axis profile plugin. The baseline intensity was normalized to the minimum value over 10 sec.

Structure (SMILES): COC(=O)C1=C(C)NC(C)=C(C(=O)OC)C1c1ccccc1[N+](=O)[O-] [nifidepine, Nifedipine]
- calcium transients: complete inhibition of transients

Reference: patent publication US20210348120A1, “Polarised Three-Dimensional Cellular Aggregates” (CAMBRIDGE ENTERPRISE LIMITED, priority 2018, published 2021)
